Measurements taken from patent US7179464.
These are yes or no findings as the source states them, for the method shown. Some results given as binding are weak or reduced against the parent protein; the word gives no strength. Where a sequence is shown, tags or fusion partners need not be part of it.

T1: fusion protein of the extracellular region of human IL-5R α and a human immunoglobulin constant region (hIL-5R α-Fc) (human) (UniProt Q01344)
T1 sequence: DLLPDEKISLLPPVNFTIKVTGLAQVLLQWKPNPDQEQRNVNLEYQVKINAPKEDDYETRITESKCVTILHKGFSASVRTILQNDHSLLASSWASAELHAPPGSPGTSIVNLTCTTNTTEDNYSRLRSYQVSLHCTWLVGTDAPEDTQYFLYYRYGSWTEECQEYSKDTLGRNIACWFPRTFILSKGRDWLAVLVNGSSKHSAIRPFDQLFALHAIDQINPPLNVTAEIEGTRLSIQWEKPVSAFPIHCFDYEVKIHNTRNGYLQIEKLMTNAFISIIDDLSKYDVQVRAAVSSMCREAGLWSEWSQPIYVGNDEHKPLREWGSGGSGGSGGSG

B1: anti-human IL-5R α chain human CDR-grafted antibody KM8397 (antibody, human IgG1, V domains shown)
VH: EVQLVQSGAEVKKPGASVKVSCKASGYTFTSYVIHWVRQAPGQGLEWMGYINPYNDGTKYNERFKGRVTITADTSTSTAYMELSSLRSEDTAVYYCAREGIRYYGLLGDYWGQGTLVTVSS
VL: DIQMTQSPSSLSASVGDRVTITCGTSEDIINYLNWYQQKPGKAPKLLIYHTSRLQSGVPSRFSGSGSGTDFTLTISSLQPEDFATYYCQQGYTLPYTFGQGTKVEIK
B2: anti-human IL-5R α human CDR-grafted antibody HV.1LV.0 (antibody, human IgG1, V domains shown)
VH: EVQLVQSGAEVKKPGASVKVSCKASGYTFTSYVIHWVRQAPGQGLEWMGYINPYNDGTKYNERFKGRVTITADTSTSTAYMELSSLRSEDTAVYLCGREGIRYYGLLGDYWGQGTLVTVSS
VL: DIQMTQSPSSLSASVGDRVTITCGTSEDIINYLNWYQQKPGKAPKLLIYHTSRLQSGVPSRFSGSGSGTDFTLTISSLQPEDFATYYCQQGYTLPYTFGQGTKVEIK
B3: anti-human IL-5R α human CDR-grafted antibody HV.2LV.0 (antibody, human IgG1, V domains shown)
VH: EVQLVQSGAEVKKPGASVKVSCKASGYTFTSYVIHWVRQAPGQGLAWMGYINPYNDGTKYNERFKGRVTITADRSTSTAYMELSSLRSEDTAVYLCGREGIRYYGLLGDYWGQGTLVTVSS
VL: DIQMTQSPSSLSASVGDRVTITCGTSEDIINYLNWYQQKPGKAPKLLIYHTSRLQSGVPSRFSGSGSGTDFTLTISSLQPEDFATYYCQQGYTLPYTFGQGTKVEIK

What follows are binders tested against T1, fusion protein of the extracellular region of human IL-5R α and a human immunoglobulin constant region (hIL-5R α-Fc) (human) (assay: ELISA method 1, transient COS-7 supernatant, normalized to antibody concentration, relative to KM1399 = 100).
With B1 the binding was “binds”.
In the case of B2, the binding is reported as “binds”.
For B3, the binding was “binds”.
